Test results reported in publication PMC8034651.
Results are given in words; binding and its absence hold for the method and conditions named. Binding seen in cells or lysates may run through a third protein. Some entries that bind do so weakly or less than the wild type. For some of these results: Sequences can lack the tags named with a protein. One block for each molecule: values may come before it.

Chains of the proteins cited; added tags and fusions are not shown.
UniProt Q07955: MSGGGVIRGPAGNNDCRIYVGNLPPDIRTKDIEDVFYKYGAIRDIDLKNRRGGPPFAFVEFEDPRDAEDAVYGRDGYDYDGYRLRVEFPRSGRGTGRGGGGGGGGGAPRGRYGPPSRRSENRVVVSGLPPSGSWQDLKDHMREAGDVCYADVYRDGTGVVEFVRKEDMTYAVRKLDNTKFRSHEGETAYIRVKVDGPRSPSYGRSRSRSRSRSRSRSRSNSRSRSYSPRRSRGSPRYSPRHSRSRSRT
UniProt O75533: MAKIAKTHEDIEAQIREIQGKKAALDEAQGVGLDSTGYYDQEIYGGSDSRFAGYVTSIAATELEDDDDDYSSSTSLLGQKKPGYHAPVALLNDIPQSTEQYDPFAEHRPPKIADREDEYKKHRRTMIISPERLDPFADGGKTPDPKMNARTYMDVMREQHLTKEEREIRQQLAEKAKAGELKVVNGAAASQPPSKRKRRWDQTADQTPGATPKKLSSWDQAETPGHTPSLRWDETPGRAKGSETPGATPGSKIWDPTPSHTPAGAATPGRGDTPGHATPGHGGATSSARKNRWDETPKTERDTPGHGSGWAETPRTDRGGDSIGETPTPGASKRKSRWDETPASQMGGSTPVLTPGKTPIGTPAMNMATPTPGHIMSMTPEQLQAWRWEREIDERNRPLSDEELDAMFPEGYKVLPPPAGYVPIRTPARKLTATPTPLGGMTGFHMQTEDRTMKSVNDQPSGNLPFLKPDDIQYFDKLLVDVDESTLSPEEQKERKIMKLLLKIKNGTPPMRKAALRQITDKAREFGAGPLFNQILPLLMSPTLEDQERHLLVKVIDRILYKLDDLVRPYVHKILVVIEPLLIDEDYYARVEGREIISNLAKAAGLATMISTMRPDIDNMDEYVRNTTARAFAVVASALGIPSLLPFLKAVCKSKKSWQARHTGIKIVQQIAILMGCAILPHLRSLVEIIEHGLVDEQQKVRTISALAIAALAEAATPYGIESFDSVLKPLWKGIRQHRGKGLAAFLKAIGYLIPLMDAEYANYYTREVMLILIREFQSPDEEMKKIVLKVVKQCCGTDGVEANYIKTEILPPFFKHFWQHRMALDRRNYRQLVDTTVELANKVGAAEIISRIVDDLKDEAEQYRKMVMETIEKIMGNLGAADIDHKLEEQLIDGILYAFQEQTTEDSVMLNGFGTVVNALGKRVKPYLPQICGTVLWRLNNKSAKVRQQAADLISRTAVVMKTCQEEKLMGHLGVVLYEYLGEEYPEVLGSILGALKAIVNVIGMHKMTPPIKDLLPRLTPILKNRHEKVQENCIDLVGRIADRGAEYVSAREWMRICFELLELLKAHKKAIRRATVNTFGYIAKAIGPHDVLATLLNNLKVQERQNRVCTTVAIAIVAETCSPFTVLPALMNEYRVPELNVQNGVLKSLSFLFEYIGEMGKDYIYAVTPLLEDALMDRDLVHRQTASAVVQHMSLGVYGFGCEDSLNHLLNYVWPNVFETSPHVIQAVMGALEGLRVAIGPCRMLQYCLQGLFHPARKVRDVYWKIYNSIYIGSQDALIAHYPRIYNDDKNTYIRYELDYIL

Columns and labels:
Pdcd7-Myc [1] = target: T1, Pdcd7-Myc (UniProt Q9WTY1); assay: co-IP; Pdcd7-Myc overexpressed in HEK293T cells, cells UV cross-linked (365 nm), modified RIPA lysate, anti-Myc immunoprecipitation on protein G Dynabeads, immunoblot for endogenous major spliceosome proteins
T1 sequence: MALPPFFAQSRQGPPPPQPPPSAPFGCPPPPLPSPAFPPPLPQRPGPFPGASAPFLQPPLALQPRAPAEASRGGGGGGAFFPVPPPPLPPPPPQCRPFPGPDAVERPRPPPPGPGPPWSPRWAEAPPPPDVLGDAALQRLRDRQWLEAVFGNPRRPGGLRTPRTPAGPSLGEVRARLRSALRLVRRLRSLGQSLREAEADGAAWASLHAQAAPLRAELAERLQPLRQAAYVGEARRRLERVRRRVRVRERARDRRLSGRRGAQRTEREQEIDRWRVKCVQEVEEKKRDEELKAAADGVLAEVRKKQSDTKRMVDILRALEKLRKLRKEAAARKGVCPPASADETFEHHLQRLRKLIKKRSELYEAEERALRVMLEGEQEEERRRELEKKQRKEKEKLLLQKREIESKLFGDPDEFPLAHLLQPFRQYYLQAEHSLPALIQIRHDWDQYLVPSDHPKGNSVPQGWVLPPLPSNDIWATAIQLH

Pdcd7-Myc [2] = target: T1, Pdcd7-Myc; assay: co-IP; as the Pdcd7-Myc immunoprecipitation, but lysate incubated with 50 ug/ml RNase A at 37 C for 15 min before pre-clearing; immunoblot
[3] = target: T2, U2AF1 (human (endogenous in HEK293T)) (UniProt Q01081); assay: co-IP; reciprocal IP: nuclear extract of untreated HEK293T cells, immunoprecipitation of endogenous U2AF1 (rabbit anti-U2AF35), immunoblot for PDCD7
T2 sequence: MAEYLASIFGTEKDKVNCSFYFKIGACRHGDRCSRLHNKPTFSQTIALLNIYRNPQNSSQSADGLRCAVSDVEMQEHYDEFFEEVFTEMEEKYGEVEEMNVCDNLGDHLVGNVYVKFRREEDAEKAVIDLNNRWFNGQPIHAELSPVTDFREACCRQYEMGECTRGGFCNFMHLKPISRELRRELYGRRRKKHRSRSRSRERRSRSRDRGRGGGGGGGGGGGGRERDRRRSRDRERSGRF

binding (Pdcd7-Myc [1]): binds
Molecule: SRSF1 (from UniProt Q07955 1-248)

binding (Pdcd7-Myc [1]): binds
binding (Pdcd7-Myc [2]): binds
Molecule: SF3B1 (from UniProt O75533 1-1304)

binding [3]: binds
B1: endogenous PDCD7 (protein, UniProt Q8N8D1 1-485)
chain: MALPPFFGQGRPGPPPPQPPPPAPFGCPPPPLPSPAFPPPLPQRPGPFPGASAPFLQPPLALQPRASAEASRGGGGAGAFYPVPPPPLPPPPPQCRPFPGTDAGERPRPPPPGPGPPWSPRWPEAPPPPADVLGDAALQRLRDRQWLEAVFGTPRRAGCPVPQRTHAGPSLGEVRARLLRALRLVRRLRGLSQALREAEADGAAWVLLYSQTAPLRAELAERLQPLTQAAYVGEARRRLERVRRRRLRLRERAREREAEREAEAARAVEREQEIDRWRVKCVQEVEEKKREQELKAAADGVLSEVRKKQADTKRMVDILRALEKLRKLRKEAAARKGVCPPASADETFTHHLQRLRKLIKKRSELYEAEERALRVMLEGEQEEERKRELEKKQRKEKEKILLQKREIESKLFGDPDEFPLAHLLEPFRQYYLQAEHSLPALIQIRHDWDQYLVPSDHPKGNFVPQGWVLPPLPSNDIWATAVKLH

binding (Pdcd7-Myc [1]): binds
binding (Pdcd7-Myc [2]): binds
B2: U2AF1 (protein, UniProt Q01081 1-240)
chain: T2 sequence

binding (Pdcd7-Myc [1]): binds
B3: SNRNP40 (protein, UniProt Q96DI7 1-357)
chain: MIEQQKRKGPELPLVPVKRQRHELLLGAGSGPGAGQQQATPGALLQAGPPRCSSLQAPIMLLSGHEGEVYCCKFHPNGSTLASAGFDRLILLWNVYGDCDNYATLKGHSGAVMELHYNTDGSMLFSASTDKTVAVWDSETGERVKRLKGHTSFVNSCYPARRGPQLVCTGSDDGTVKLWDIRKKAAIQTFQNTYQVLAVTFNDTSDQIISGGIDNDIKVWDLRQNKLTYTMRGHADSVTGLSLSSEGSYLLSNAMDNTVRVWDVRPFAPKERCVKIFQGNVHNFEKNLLRCSWSPDGSKIAAGSADRFVYVWDTTSRRILYKLPGHAGSINEVAFHPDEPIIISASSDKRLYMGEIQ
